No constants are given. Whether binding was seen depends on the method and setting. In cells and extracts the contact can be indirect. Some entries that bind do so weakly or less than the wild type. Tags and fused reporters may be left off the sequences shown.
Tests used:
Assay in all cases: co-IP; competitive co-IP: 293T cells cotransfected with pCAGGS-HA-NSE4 and pFlag-SMC5, pFlag-NSE1 or pFlag-NSE3, with or without tag-free pcDNA3.1-PJA1ΔR (0.5 μg) or pcDNA3.1-PJA1BΔR (0, 0.5, 1.5 μg); RIPA lysis buffer; blots with anti-HA or anti-Flag
Flag-SMC5 (human) = Flag-SMC5 (human) (UniProt Q8IY18)
Flag-NSE1 (human) = target: T1, Flag-NSE1 (human) (UniProt Q8WV22)
T1 sequence: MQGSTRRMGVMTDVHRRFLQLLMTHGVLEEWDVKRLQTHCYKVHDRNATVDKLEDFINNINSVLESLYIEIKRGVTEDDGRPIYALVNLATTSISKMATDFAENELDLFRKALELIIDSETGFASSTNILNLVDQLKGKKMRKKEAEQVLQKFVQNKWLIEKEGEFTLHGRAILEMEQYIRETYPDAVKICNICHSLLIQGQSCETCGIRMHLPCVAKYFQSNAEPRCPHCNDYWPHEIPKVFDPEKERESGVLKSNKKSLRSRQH

Amino acid sequences for entries named in this document (tags omitted).
UniProt Q8IY18: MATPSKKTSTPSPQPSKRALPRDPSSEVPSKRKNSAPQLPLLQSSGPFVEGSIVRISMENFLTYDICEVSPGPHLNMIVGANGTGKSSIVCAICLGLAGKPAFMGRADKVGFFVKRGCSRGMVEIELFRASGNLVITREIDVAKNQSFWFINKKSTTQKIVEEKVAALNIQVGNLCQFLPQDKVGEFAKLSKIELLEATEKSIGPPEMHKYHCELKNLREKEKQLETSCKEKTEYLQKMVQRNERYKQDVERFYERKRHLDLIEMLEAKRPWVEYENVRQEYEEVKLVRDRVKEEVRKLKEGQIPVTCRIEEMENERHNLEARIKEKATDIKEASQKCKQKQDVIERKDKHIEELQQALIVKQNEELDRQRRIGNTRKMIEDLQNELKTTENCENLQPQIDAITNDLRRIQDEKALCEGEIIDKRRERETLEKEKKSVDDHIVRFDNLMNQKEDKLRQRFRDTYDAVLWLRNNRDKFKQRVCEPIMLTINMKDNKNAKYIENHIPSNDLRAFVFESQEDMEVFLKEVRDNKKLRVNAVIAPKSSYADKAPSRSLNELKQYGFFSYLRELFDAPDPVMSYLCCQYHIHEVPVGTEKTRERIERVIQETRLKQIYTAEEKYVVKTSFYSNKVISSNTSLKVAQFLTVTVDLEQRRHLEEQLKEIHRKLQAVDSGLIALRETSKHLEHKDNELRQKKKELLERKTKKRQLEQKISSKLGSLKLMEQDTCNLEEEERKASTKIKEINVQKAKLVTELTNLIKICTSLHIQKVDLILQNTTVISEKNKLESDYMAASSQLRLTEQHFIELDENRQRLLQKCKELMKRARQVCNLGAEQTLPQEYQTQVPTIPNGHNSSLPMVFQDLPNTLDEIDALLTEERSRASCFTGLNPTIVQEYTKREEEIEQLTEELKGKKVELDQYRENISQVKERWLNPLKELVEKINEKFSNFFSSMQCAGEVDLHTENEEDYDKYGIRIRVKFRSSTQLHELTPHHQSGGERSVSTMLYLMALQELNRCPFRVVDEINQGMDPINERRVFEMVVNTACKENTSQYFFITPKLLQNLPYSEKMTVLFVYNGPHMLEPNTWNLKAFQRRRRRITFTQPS

Flag-NSE3 (human) = target: T2, Flag-NSE3 (human) (UniProt Q96MG7)
T2 sequence: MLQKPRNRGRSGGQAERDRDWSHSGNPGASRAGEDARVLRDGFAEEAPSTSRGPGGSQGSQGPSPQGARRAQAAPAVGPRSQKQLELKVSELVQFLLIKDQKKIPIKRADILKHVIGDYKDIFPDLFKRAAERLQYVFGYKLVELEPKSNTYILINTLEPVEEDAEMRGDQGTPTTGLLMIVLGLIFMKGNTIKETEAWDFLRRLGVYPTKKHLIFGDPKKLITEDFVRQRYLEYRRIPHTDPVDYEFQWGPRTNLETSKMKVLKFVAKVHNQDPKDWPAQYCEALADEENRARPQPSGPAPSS

Measured: binding

B1: HA-NSE4 (from pCAGGS-HA-NSE4) (protein, UniProt Q9NXX6 1-385)
chain: MSGDSSGRGPEGRGRGRDPHRDRTRSRSRSRSPLSPRSRRGSARERREAPERPSLEDTEPSDSGDEMMDPASLEAEADQGLCRQIRHQYRALINSVQQNREDILNAGDKLTEVLEEANTLFNEVSRAREAVLDAHFLVLASDLGKEKAKQLRSDLSSFDMLRYVETLLTHMGVNPLEAEELIRDEDSPDFEFIVYDSWKITGRTAENTFNKTHTFHFLLGSIYGECPVPKPRVDRPRKVPVIQEERAMPAQLRRMEESHQEATEKEVERILGLLQTYFREDPDTPMSFFDFVVDPHSFPRTVENIFHVSFIIRDGFARIRLDQDRLPVIEPVSINEENEGFEHNTQVRNQGIIALSYRDWEEIVKTFEISEPVITPSQRQQKPSA
binds: Flag-SMC5 (human) | Flag-NSE1 (human) | Flag-NSE3 (human)
